Results are given in words; binding and its absence hold for the method and conditions named. In cells and extracts the contact can be indirect. These calls come from enrichment with a bait or labelling near it, and not all partners need be listed. For part of these data: Tags and fused reporters may be left off the sequences shown.
B1: VGLL4, endogenous in K562 (protein, UniProt Q14135 1-290)
chain: METPLDVLSRAASLVHADDEKREAALRGEPRIQTLPVASALSSHRTGPPPISPSKRKFSMEPGDEDLDCDNDHVSKMSRIFNPHLNKTANGDCRRDPRERSRSPIERAVAPTMSLHGSHLYTSLPSLGLEQPLALTKNSLDASRPAGLSPTLTPGERQQNRPSVITCASAGARNCNLSHCPIAHSGCAAPGPASYRRPPSAATTCDPVVEEHFRRSLGKNYKEPEPAPNSVSITGSVDDHFAKALGDTWLQIKAAKDGASSSPESASRRGQPASPSAHMVSHSHSPSVVS
B2: ILF3, endogenous in K562 (protein, UniProt Q12906 1-894)
chain: MRPMRIFVNDDRHVMAKHSSVYPTQEELEAVQNMVSHTERALKAVSDWIDEQEKGSSEQAESDNMDVPPEDDSKEGAGEQKTEHMTRTLRGVMRVGLVAKGLLLKGDLDLELVLLCKEKPTTALLDKVADNLAIQLAAVTEDKYEILQSVDDAAIVIKNTKEPPLSLTIHLTSPVVREEMEKVLAGETLSVNDPPDVLDRQKCLAALASLRHAKWFQARANGLKSCVIVIRVLRDLCTRVPTWGPLRGWPLELLCEKSIGTANRPMGAGEALRRVLECLASGIVMPDGSGIYDPCEKEATDAIGHLDRQQREDITQSAQHALRLAAFGQLHKVLGMDPLPSKMPKKPKNENPVDYTVQIPPSTTYAITPMKRPMEEDGEEKSPSKKKKKIQKKEEKAEPPQAMNALMRLNQLKPGLQYKLVSQTGPVHAPIFTMSVEVDGNSFEASGPSKKTAKLHVAVKVLQDMGLPTGAEGRDSSKGEDSAEETEAKPAVVAPAPVVEAVSTPSAAFPSDATAEQGPILTKHGKNPVMELNEKRRGLKYELISETGGSHDKRFVMEVEVDGQKFQGAGSNKKVAKAYAALAALEKLFPDTPLALDANKKKRAPVPVRGGPKFAAKPHNPGFGMGGPMHNEVPPPPNLRGRGRGGSIRGRGRGRGFGGANHGGYMNAGAGYGSYGYGGNSATAGYSQFYSNGGHSGNASGGGGGGGGGSSGYGSYYQGDNYNSPVPPKHAGKKQPHGGQQKPSYGSGYQSHQGQQQSYNQSPYSNYGPPQGKQKGYNHGQGSYSYSNSYNSPGGGGGSDYNYESKFNYSGSGGRSGGNSYGSGGASYNPGSHGGYGGGSGGGSSYQGKQGGYSQSNYNSPGSGQNYSGPPSSYQSSQGGYGRNADHSMNYQYR
B3: MBD1, endogenous in K562 (protein, UniProt Q9UIS9 1-605)
chain: MAEDWLDCPALGPGWKRREVFRKSGATCGRSDTYYQSPTGDRIRSKVELTRYLGPACDLTLFDFKQGILCYPAPKAHPVAVASKKRKKPSRPAKTRKRQVGPQSGEVRKEAPRDETKADTDTAPASFPAPGCCENCGISFSGDGTQRQRLKTLCKDCRAQRIAFNREQRMFKRVGCGECAACQVTEDCGACSTCLLQLPHDVASGLFCKCERRRCLRIVERSRGCGVCRGCQTQEDCGHCPICLRPPRPGLRRQWKCVQRRCLRGKHARRKGGCDSKMAARRRPGAQPLPPPPPSQSPEPTEPHPRALAPSPPAEFIYYCVDEDELQPYTNRRQNRKCGACAACLRRMDCGRCDFCCDKPKFGGSNQKRQKCRWRQCLQFAMKRLLPSVWSESEDGAGSPPPYRRRKRPSSARRHHLGPTLKPTLATRTAQPDHTQAPTKQEAGGGFVLPPPGTDLVFLREGASSPVQVPGPVAASTEALLQEAQCSGLSWVVALPQVKQEKADTQDEWTPGTAVLTSPVLVPGCPSKAVDPGLPSVKQEPPDPEEDKEENKDDSASKLAPEEEAGGAGTPVITEIFSLGGTRFRDTAVWLPRSKDLKKPGARKQ
B4: LUC7L3, endogenous in K562 (protein, UniProt O95232 1-432)
chain: MISAAQLLDELMGRDRNLAPDEKRSNVRWDHESVCKYYLCGFCPAELFTNTRSDLGPCEKIHDENLRKQYEKSSRFMKVGYERDFLRYLQSLLAEVERRIRRGHARLALSQNQQSSGAAGPTGKNEEKIQVLTDKIDVLLQQIEELGSEGKVEEAQGMMKLVEQLKEERELLRSTTSTIESFAAQEKQMEVCEVCGAFLIVGDAQSRVDDHLMGKQHMGYAKIKATVEELKEKLRKRTEEPDRDERLKKEKQEREEREKEREREREERERKRRREEEEREKERARDRERRKRSRSRSRHSSRTSDRRCSRSRDHKRSRSRERRRSRSRDRRRSRSHDRSERKHRSRSRDRRRSKSRDRKSYKHRSKSRDREQDRKSKEKEKRGSDDKKSSVKSGSREKQSEDTNTESKESDTKNEVNGTSEDIKSEGDTQSN
B5: POLDIP3, endogenous in K562 (protein, UniProt Q9BY77 1-421)
chain: MADISLDELIRKRGAAAKGRLNARPGVGGVRSRVGIQQGLLSQSTRTATFQQRFDARQKIGLSDARLKLGVKDAREKLLQKDARFRIKGKVQDAREMLNSRKQQTTVPQKPRQVADAREKISLKRSSPAAFINPPIGTVTPALKLTKTIQVPQQKAMAPLHPHPAGMRINVVNNHQAKQNLYDLDEDDDGIASVPTKQMKFAASGGFLHHMAGLSSSKLSMSKALPLTKVVQNDAYTAPALPSSIRTKALTNMSRTLVNKEEPPKELPAAEPVLSPLEGTKMTVNNLHPRVTEEDIVELFCVCGALKRARLVHPGVAEVVFVKKDDAITAYKKYNNRCLDGQPMKCNLHMNGNVITSDQPILLRLSDSPSMKKESELPRRVNSASSSNPPAEVDPDTILKALFKSSGASVTTQPTEFKIKL
B6: NONO, endogenous in K562, Q15233 1-471 (protein)
chain: MQSNKTFNLEKQNHTPRKHHQHHHQQQHHQQQQQQPPPPPIPANGQQASSQNEGLTIDLKNFRKPGEKTFTQRSRLFVGNLPPDITEEEMRKLFEKYGKAGEVFIHKDKGFGFIRLETRTLAEIAKVELDNMPLRGKQLRVRFACHSASLTVRNLPQYVSNELLEEAFSVFGQVERAVVIVDDRGRPSGKGIVEFSGKPAARKALDRCSEGSFLLTTFPRPVTVEPMDQLDDEEGLPEKLVIKNQQFHKEREQPPRFAQPGSFEYEYAMRWKALIEMEKQQQDQVDRNIKEAREKLEMEMEAARHEHQVMLMRQDLMRRQEELRRMEELHNQEVQKRKQLELRQEEERRRREEEMRRQQEEMMRRQQEGFKGTFPDAREQEIRMGQMAMGGAMGINNRGAMPPAPVPAGTPAPPGPATMMPDGTLGLTPPTTERFGQAATMEGIGAIGGTPPAFNRAAPGAEFAPNKRRRY
modifications: here or on the partner: biotin on the avi-tag (biotinylated in the cells by BirA-ligase)

The chains behind the UniProt entries cited, without tags or fusion partners.
UniProt Q96LA8: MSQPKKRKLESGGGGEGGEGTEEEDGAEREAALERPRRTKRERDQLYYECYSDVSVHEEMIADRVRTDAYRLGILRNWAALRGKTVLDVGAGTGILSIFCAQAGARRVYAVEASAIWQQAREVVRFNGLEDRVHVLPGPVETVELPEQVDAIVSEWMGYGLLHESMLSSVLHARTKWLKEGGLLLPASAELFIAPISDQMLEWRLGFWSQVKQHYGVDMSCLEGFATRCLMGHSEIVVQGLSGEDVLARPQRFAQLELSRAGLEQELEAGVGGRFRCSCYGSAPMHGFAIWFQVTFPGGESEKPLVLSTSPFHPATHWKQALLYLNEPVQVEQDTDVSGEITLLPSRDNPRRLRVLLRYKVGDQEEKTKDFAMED
UniProt Q99873: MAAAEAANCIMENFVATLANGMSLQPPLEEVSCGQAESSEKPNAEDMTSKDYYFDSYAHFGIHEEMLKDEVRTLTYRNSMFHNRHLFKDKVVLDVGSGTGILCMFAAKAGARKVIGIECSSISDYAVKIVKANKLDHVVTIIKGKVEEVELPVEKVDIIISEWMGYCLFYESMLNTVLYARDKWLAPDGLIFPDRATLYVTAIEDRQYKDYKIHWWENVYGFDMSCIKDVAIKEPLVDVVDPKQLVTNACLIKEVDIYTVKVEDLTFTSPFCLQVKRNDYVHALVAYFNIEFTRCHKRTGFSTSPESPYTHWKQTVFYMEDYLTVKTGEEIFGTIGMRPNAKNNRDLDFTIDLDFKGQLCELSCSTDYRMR
UniProt Q9UJU2: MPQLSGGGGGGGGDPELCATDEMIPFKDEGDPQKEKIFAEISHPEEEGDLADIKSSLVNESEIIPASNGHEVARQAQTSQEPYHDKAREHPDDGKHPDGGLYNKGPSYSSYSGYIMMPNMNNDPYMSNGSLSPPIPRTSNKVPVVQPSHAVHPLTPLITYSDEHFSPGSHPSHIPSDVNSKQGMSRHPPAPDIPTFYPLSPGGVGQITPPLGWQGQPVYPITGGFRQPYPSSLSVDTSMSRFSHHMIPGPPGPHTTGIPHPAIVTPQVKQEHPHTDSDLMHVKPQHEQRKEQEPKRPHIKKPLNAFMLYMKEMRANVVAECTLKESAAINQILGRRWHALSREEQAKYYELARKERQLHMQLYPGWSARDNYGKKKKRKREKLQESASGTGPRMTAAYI
UniProt Q9NYF8: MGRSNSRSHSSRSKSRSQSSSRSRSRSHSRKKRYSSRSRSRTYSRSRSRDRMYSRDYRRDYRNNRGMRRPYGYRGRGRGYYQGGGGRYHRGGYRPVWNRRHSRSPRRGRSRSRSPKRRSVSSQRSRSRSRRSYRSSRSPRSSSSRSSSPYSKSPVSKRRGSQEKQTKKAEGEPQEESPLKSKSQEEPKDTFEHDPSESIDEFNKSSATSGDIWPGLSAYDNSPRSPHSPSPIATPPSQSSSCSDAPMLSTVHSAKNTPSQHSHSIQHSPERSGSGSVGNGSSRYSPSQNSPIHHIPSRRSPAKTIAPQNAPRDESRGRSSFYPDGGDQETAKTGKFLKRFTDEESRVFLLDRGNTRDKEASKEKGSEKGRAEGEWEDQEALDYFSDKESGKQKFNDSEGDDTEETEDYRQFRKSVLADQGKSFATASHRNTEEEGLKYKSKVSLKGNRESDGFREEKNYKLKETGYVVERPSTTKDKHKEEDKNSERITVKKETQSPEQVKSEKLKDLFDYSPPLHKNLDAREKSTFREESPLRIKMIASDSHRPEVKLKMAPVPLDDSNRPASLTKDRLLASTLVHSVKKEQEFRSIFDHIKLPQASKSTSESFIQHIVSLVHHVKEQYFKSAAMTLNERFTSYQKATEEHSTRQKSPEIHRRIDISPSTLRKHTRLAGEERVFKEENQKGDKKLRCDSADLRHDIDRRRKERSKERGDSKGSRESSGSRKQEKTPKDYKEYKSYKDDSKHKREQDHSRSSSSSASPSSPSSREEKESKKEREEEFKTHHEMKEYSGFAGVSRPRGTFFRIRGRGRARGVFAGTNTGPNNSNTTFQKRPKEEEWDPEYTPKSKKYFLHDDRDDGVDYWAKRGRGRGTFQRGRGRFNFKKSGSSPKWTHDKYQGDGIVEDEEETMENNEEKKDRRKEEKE
UniProt P49750: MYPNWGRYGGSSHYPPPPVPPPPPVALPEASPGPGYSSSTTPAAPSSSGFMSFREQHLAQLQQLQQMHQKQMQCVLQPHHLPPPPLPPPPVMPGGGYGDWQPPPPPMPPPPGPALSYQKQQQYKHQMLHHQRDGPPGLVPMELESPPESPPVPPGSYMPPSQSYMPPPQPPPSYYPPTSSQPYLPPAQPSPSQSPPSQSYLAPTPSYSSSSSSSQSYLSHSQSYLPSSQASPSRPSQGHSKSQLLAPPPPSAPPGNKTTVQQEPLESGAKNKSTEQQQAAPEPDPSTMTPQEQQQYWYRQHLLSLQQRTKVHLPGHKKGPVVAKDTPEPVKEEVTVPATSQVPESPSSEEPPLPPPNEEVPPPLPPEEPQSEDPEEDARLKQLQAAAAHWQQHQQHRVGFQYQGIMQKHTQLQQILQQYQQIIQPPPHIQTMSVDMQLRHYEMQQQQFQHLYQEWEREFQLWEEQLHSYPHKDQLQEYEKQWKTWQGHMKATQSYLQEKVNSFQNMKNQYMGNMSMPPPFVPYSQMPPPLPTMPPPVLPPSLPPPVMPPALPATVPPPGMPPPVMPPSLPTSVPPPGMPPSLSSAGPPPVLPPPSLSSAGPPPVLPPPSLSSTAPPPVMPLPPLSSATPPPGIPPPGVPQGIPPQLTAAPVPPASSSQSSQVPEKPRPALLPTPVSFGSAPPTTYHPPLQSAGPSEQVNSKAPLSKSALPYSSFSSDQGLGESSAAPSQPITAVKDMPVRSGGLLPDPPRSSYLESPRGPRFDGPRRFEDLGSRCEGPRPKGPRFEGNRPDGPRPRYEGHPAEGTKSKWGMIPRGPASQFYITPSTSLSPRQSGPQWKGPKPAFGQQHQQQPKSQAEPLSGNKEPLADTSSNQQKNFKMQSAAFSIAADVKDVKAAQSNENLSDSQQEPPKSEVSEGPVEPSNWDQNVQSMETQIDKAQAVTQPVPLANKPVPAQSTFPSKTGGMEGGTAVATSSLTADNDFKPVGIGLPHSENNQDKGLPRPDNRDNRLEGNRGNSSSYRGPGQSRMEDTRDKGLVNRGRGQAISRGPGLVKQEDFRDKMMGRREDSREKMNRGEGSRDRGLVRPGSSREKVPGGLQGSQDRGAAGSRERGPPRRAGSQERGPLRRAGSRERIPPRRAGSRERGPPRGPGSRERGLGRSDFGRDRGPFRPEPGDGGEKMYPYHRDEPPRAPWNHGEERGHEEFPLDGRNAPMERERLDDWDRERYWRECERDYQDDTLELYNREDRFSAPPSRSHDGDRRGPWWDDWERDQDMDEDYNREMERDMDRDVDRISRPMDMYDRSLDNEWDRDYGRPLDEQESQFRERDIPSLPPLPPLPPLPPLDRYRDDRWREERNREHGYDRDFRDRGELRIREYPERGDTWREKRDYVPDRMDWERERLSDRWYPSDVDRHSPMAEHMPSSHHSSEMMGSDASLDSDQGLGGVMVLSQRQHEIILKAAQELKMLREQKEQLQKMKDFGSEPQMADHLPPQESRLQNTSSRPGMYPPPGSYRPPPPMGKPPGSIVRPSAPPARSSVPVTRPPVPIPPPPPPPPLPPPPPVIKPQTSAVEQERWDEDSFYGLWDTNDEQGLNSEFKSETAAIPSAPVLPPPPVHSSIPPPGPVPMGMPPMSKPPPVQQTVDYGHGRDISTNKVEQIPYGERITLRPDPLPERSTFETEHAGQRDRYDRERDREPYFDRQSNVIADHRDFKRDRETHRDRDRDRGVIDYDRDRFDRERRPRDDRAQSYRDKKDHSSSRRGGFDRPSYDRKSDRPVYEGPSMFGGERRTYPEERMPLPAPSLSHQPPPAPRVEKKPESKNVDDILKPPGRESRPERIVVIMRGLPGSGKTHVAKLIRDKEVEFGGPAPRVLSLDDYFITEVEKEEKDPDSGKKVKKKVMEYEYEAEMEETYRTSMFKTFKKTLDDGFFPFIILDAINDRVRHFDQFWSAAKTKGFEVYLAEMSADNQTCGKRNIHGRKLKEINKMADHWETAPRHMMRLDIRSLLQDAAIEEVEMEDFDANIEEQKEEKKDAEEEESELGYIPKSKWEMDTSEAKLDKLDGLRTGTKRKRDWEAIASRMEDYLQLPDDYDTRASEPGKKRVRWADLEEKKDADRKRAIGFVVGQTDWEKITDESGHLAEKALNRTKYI
UniProt Q01196: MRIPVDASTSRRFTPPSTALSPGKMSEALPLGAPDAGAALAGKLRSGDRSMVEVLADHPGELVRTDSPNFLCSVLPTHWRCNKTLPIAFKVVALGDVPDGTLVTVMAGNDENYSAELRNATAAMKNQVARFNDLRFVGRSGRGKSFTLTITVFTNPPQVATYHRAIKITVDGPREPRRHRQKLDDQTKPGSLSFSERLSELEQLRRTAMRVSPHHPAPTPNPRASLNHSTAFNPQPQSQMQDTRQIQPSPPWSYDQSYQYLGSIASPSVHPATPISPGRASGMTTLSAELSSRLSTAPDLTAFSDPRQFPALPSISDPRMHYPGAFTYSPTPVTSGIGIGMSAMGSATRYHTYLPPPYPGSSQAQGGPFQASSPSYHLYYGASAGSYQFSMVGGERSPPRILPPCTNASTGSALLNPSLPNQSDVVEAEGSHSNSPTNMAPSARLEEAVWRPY
UniProt Q12905: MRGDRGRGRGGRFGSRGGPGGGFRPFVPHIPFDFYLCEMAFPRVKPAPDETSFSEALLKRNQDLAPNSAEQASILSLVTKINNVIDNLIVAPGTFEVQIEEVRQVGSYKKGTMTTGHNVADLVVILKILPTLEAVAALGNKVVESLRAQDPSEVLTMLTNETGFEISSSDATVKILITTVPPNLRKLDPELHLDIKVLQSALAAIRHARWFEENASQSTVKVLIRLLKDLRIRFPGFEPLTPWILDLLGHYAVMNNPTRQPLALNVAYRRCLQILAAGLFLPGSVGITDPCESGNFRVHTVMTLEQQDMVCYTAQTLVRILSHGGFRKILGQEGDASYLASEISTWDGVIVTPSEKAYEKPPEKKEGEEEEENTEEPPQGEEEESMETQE

These molecules were tested against avi-PRMT6 (protein arginine methyltransferase 6), biotinylated, in K562 cells (UniProt Q96LA8) (assay: affinity purification with mass spectrometry; avi-PRMT6 pulled from K562 nuclear extracts with streptavidin beads (Dynabeads M-280); SILAC heavy (avi-PRMT6 + BirA-ligase) against light (control); washes 10 mM Tris pH 7.5, 0.2 M NaCl, 10% glycerol, 0.5 mM DTT, 0.1% NP-40; LC-MS/MS). Details: not given.

binding, binds:
PRMT1, endogenous in K562 (from UniProt Q99873 1-371) (enzyme)
LEF1, endogenous in K562 (from UniProt Q9UJU2 1-399)
BCLAF1, endogenous in K562 (from UniProt Q9NYF8 1-920)
YLPM1, endogenous in K562 (from UniProt P49750 1-2146)
RUNX1, endogenous in K562 (from UniProt Q01196 1-453)
ILF2, endogenous in K562 (from UniProt Q12905 1-390)
B1
B2
B3
B4
B5

What follows are molecules tested against avi-PRMT6 (protein arginine methyltransferase 6), biotinylated, in K562 cells, Q96LA8 in the same assay as above. Details: remark: other sources report otherwise.

binding, binds:
B6

From paper PMC8129428
